We go through six compounds from publication PMC7570844, “Skin Damages—Structure Activity Relationship of Benzimidazole Derivatives Bearing a 5-Membered Ring System” (Molecules, 2020).

Common to all, as to assay: Cell proliferation inhibition
Data set [1] relates to human T-lymphocyte cells (CEM). The settings on record: IC50 in normal cell line (Hek293)/IC50 in CEM.
In data set [2] the test system is human pancreatic carcinoma cells (Mia Paca-2). The conditions noted are these: IC50 in normal cell line (Hek293)/IC50 in Mia Paca-2.
Data set [3] concerns human melanoma cells (SK-Mel 5). The settings on record: IC50 in normal cell line (Hek293)/IC50 in SK-Mel 5.

Consider `O=S(=O)(O)c1ccc2[nH]c(-c3cccs3)nc2c1` [Compound 9, 2-(thiophen-2-yl)-1H-benzimidazole-5-sulfonic Acid], for which the SI was 2.94 in data set [1] and 2.33 in data set [2]. On the same counts, the results for `O=C(O)c1ccc2[nH]c(-c3cccs3)nc2c1` [Compound 15, 2-(thiophen-2-yl)-1H-benzimidazole-5-carboxylic Acid] are 2 and 1.25. On the same counts, the results for `O=S(=O)(O)c1ccc2[nH]c(-c3ccc[nH]3)nc2c1` [Compound 7, 2-(1H-pyrrol-2-yl)-1H-benzimidazole-5-sulfonic Acid] are 2.16 and 2.39. In the case of `c1c[nH]c(-c2nc3ccccc3[nH]2)c1` [Compound 10, 2-(1H-pyrrol-2-yl)-1H-benzimidazole], the results for the SI in data set [1], in data set [3] and in data set [2] were 2.21, 3.20 and 2.07, respectively.

Regarding `c1csc(-c2nc3ccccc3[nH]2)c1` [Compound 12, 2-(thiophen-2-yl)-1H-benzimidazole], in data set [3], the SI came out at 1.16. Consider `O=C(O)c1ccc2[nH]c(-c3ccco3)nc2c1` [Compound 14, 2-(furan-2-yl)-1H-benzimidazole-5-carboxylic Acid], for which the SI in data set [1] turned out to be 1.33.
